Experimental data: PubChem BioAssay AID2685 (National Center for Advancing Translational Sciences (NCATS), 2010)
Some of the results follow. Further columns of the screen follow, without active or inactive calls. Compounds called inactive in the main read-out are mostly missing here. Words in brackets tell the shape of the fitted curve; partial curves, single points and poor fits give uncertain potencies.

Assay: qHTS Assay for Lipid Storage Modulators in Drosophila S3 Cells;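 on cell number change: cells counted by Cell Tracker Red CMTPX staining in the red channel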
Conditions: BODIPY lipid droplet fluorescence, 18-24 h; for cell number change: measured here: cell count max response, cells fed with added oleic acid
How it was run: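 Drosophila S3 cells loaded with oleic acid (400 uM, as added) and compounds at several concentrations; lipid droplets imaged by 488-nm laser-scanning cytometry, 500–530 nm intensity and object ratio to cell channel. Percent activity normalized to 20 uM Triacsin C.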

[1] = measured here: lipid fluorescence (Fed channel) AC50, cells fed with added oleic acid
[2] = measured here: cell number channel AC50, cells fed with added oleic acid

| SMILES | cell number change | AC50 [1] | AC50 [2] |
| --- | --- | --- | --- |
| COc1cc(C(=O)N2CCN(C3CCC(C)CC3)CC2)cc(OC)c1OC (stereo unspecified) | 8.41% | 18.4 µM [rising, single point] |  |
| O=C(NCC1CCCO1)C(c1cccs1)N(C(=O)c1ccc(-c2ccccc2)[nH]1)C1CCCC1 (stereo unspecified) | 4.15% | 29.1 µM [falling, single point] |  |
| CCOc1ccccc1N1CCN(C(=O)COc2ccc3c(C)cc(=O)oc3c2)CC1 | -22.4% | 1.64 µM [rising, single point] | 2.06 µM [rising, single point] |
| CCc1cccc(N(C(=O)c2csnn2)C(C(=O)NC2CCCC2)c2cccnc2)c1 (stereo unspecified) | 12.5% | 1.64 µM [rising, partial curve, poor fit] |  |
| CC1CCN(CCCNC(=O)CN2C(=O)CSc3ccc(S(=O)(=O)N4CCOCC4)cc32)CC1 |  | 0.00461 µM [falling, full curve, poor fit] |  |
| COc1ccccc1-c1nnc(SCC(=O)Nc2nc(-c3ccccc3)cs2)n1C | 10.8% | 0.517 µM [rising, full curve, poor fit] |  |
| CC1(C)C2CCC1(C)C(OC(=O)C[n+]1ccccc1)C2 (stereo unspecified) | -19.3% | 25.9 µM [falling, single point] |  |
| COCc1cc(C)nc2sc(C(=O)NC3CCCCC3)c(N)c12 |  | 3.66 µM [rising, partial curve, poor fit] | 0.58 µM [rising, full curve] |
| O=C(NCc1ccncc1)c1cccc(NS(=O)(=O)c2ccc(F)c(F)c2)c1 | -15% |  |  |
| CC1CCN(S(=O)(=O)c2nnc(NC(=O)COc3ccccc3)s2)CC1 | 22.7% |  |  |
| Cc1cc(Nc2ccc(Cl)cc2)n(-c2cccc(Cl)c2)n1 | 27.2% | 6.51 µM [rising, single point] |  |
| COc1ccc(NC(=O)c2cccc(-n3cnnn3)c2)cc1 | -6.44% | 29.1 µM [falling, single point] |  |
| CCCC(C)C(=O)Nc1ncc(S(=O)(=O)c2ccc([N+](=O)[O-])cc2)s1 (stereo unspecified) | -31.9% | 8.2 µM [falling, partial curve, poor fit] | 25.9 µM [falling, single point] |
| CCCc1cc(C(=O)NCc2cccs2)no1 | -34.4% | 0.116 µM [falling, full curve, poor fit] | 29.1 µM [falling, single point] |
| O=C(Nc1cccc(-c2nn[nH]n2)c1)c1ccc(Cl)s1 |  | 6.51 µM [rising, single point] |  |
| COc1ccc(-c2sc3ccccc3c2C#CCO)cc1 | -10.4% | 0.13 µM [falling, full curve, poor fit] |  |
| O=C(Cc1ccccc1)Nn1cnc2ccccc21 | 31.6% |  | 0.366 µM [rising, full curve] |
| N#CC1(P(=O)(c2ccccc2)c2ccccc2)CCCC1 | 2.17% | 0.58 µM [rising, single point] |  |
| CCN1CCN(c2cc(C)c3cc(NC(=O)CCC(=O)Nc4ccc(OC)c(OC)c4)ccc3n2)CC1 | 58.9% |  | 1.03 µM [rising, full curve, poor fit] |
| COc1cc(S(=O)(=O)NC2CCCCC2)ccc1Cl | -31.6% | 20.6 µM [falling, single point] | 20.6 µM [falling, single point] |
| O=C(CN1C(=O)NC2(CCCCC2)C1=O)NCCc1c[nH]c2ccccc12 | 24% |  |  |
| CSCCC1NC(=O)NC1=O (stereo unspecified) | -1.07% | 1.16 µM [falling, full curve] |  |
| O=C(COc1ccc(-n2cnnn2)cc1)Nc1ccccc1OC(F)F | -0.564% | 0.00517 µM [falling, full curve, poor fit] |  |
| O=C(CCNS(=O)(=O)c1ccccc1F)N1CCN(C(c2ccccc2)c2ccccc2)CC1 |  | 1.84 µM [falling, partial curve] |  |
| O=C1CC(N2CCN(C/C=C/c3ccccc3)CC2)C(=O)N1Cc1ccc(N2CCCC2=O)cc1 (stereo unspecified) | -6.8% | 4.61 µM [falling, single point] |  |
| COc1cc(NC(=O)C23CC4CC(C2)CC(n2cnc([N+](=O)[O-])n2)(C4)C3)cc(OC)c1 | 28.2% | 2.31 µM [rising, single point] |  |
| O=C(NNC(=O)c1cccs1)c1ccncc1 | -1.41% | 3.26 µM [falling, partial curve, poor fit] |  |
| N#Cc1cnn2c3c(cnc12)C(=O)N1CCc2ccccc2C1C3 (stereo unspecified) | 40.4% | 3.66 µM [rising, partial curve, poor fit] | 4.61 µM [rising, full curve] |

| SMILES | cell number change | AC50 [1] | AC50 [2] |
| --- | --- | --- | --- |
| CCOC(=O)C1Cc2c([nH]c3ccccc23)C(C)N1 (stereo unspecified) |  | 3.66 µM [rising, full curve] |  |
| CCC(NC(=O)c1cc(COc2ccc(OC)cc2Cl)on1)c1ccncc1 (stereo unspecified) | 19.9% |  |  |
| COc1ccc(CCNC(=O)CCC(=O)Nc2nnc(C(C)C)s2)cc1OC | 33.3% | 0.731 µM [falling, full curve] | 29.1 µM [rising, single point] |
| Cc1ccc(C(=O)C(OC(=O)c2cnccn2)c2ccccc2)cc1 (stereo unspecified) | 14.6% |  |  |
| Cc1oc2ccc(OC(=O)N3CCOCC3)cc2c1C(=O)OC(C)C | -4.71% | 11.6 µM [rising, single point] |  |
| COc1cc(/C=N/Nc2nncn2N)ccc1OCc1c(C)no[n+]1[O-] | -58% | 29.1 µM [falling, single point] | 29.1 µM [falling, single point] |
| C[C@H](NC(=O)NCc1cccs1)C(=O)O |  | 23.1 µM [falling, partial curve] | 0.291 µM [falling, full curve, poor fit] |
| C/C(=N\NC(=O)COc1ccccc1-c1ccccc1)c1ccccn1 | -28.4% | 0.58 µM [falling, full curve] |  |
| O=C1c2ccccc2C(=O)N1Cc1ccccc1F |  | 6.51 µM [falling, partial curve, poor fit] |  |
| Cc1cc(NC(=O)CSc2[nH]c(=O)cc(C(F)(F)F)c2C#N)no1 | 39.8% |  | 10.3 µM [rising, partial curve, poor fit] |
| O=C(CSc1nnc(CNC(=O)c2ccccc2F)o1)Nc1ccc2c(c1)OCCO2 | 35.9% | 29.1 µM [rising, single point] | 9.2 µM [rising, partial curve, poor fit] |
| O=C(COC(=O)COc1ccccc1Cc1ccccc1)Nc1cccnc1Cl | 133% |  | 29.1 µM [rising, single point] |
| N#Cc1ccc(Cn2ccnc2C(=O)Nc2ccccc2)cc1 | 21.2% | 6.51 µM [rising, single point] | 2.06 µM [rising, partial curve] |
| CCN(CC)c1ccc(/C=C(/C#N)c2nc3ccc(C)cc3[nH]2)c(OC(C)C)c1 | -95.4% | 4.11 µM [falling, full curve] | 20.6 µM [falling, partial curve] |
| Cc1ccc(C(=O)N2CCOCC2)cc1S(=O)(=O)Nc1cccc(C)c1C | -29.5% | 29.1 µM [falling, single point] |  |
| COc1ccc(C(=O)NC2CCCCCC2)cc1S(=O)(=O)N1CCCc2ccccc21 |  | 1.84 µM [rising, partial curve] | 1.64 µM [rising, partial curve] |
| CCCOC(=O)c1[nH]c2c(c1C)C(=O)CC(c1cc(OC)c(OC)c(OC)c1)C2 (stereo unspecified) | -42.6% | 29.1 µM [falling, single point] | 16.4 µM [falling, single point] |
| COc1ccccc1NC(=S)NCC1CCCO1 (stereo unspecified) | -2.25% | 0.517 µM [rising, partial curve, poor fit] | 0.58 µM [rising, partial curve, poor fit] |
| COc1ccc(C(=O)N/C(=C/c2cccs2)C(=O)NN)cc1OC | 32% | 23.1 µM [rising, single point] | 16.4 µM [rising, single point] |
| CC(=C/c1ccccc1)/C=N/NC(=O)c1ccc2nc[nH]c2c1 | -42.1% | 13 µM [rising, single point] | 6.51 µM [rising, single point] |
| Cc1ccccc1-c1nc(SCc2cccnc2)c2c(=O)n(C)c(=O)n(C)c2n1 | 47.8% |  | 2.59 µM [rising, full curve] |
| COCCn1c(C)cc(/C=C(\C#N)C(=O)OC(C)C(=O)Nc2ccc(NC(C)=O)cc2)c1C (stereo unspecified) | 206% |  | 14.6 µM [rising, partial curve] |
| COc1ccccc1NS(=O)(=O)c1cc(NC(=O)c2ccco2)ccc1N1CCOCC1 | 19.5% | 0.58 µM [rising, single point] | 0.731 µM [rising, full curve, poor fit] |
| CC1CCN(CC(=O)Nc2ccccc2C#N)CC1 | -22.2% | 18.4 µM [falling, partial curve] |  |
| CCc1ccc(OCC(=O)N2CCN(c3ccccn3)CC2)c(Br)c1 | 15.7% |  | 3.26 µM [rising, partial curve, poor fit] |
| O=C(Oc1ccc(-c2cnc3ccccc3n2)cc1)c1ccc(Cl)c([N+](=O)[O-])c1 | -4.51% | 23.1 µM [falling, partial curve, poor fit] |  |
| CN1CCN(Cc2nc3ccccc3c(=O)n2Cc2nc(-c3ccc4ccccc4c3)cs2)CC1 | -62.1% | 20.6 µM [falling, single point] | 23.1 µM [falling, single point] |

Just cell number change and AC50 [2] (four entries from above):
SMILES,cell number change,AC50 [2]
CCOc1ccccc1N1CCN(C(=O)COc2ccc3c(C)cc(=O)oc3c2)CC1,-22.4%,"2.06 µM [rising, single point]"
O=C(CN1C(=O)NC2(CCCCC2)C1=O)NCCc1c[nH]c2ccccc12,24%,
Cc1oc2ccc(OC(=O)N3CCOCC3)cc2c1C(=O)OC(C)C,-4.71%,
C/C(=N\NC(=O)COc1ccccc1-c1ccccc1)c1ccccn1,-28.4%,

Single values from the entries so far:
In cell number change, `C/C(=N\NC(=O)COc1ccccc1-c1ccccc1)c1ccccn1` has the entry -28.4%
In cell number change, `O=C(CN1C(=O)NC2(CCCCC2)C1=O)NCCc1c[nH]c2ccccc12` has the entry 24%
